Measurements reported in patent publication US20240197691A1, “TACROLIMUS COMPOSITIONS AND METHODS OF USE” (CN2 THERAPEUTICS, INC., priority 2022, published 2024).
At least one structure is not confirmed: it was looked up by name or label, or the drawing left a doubt.

Assay: Gamma irradiation of Tacrolimus
Type: physicochemical
Text: In certain embodiments, the composition can be irradiated before administration to a subject. For example, at least one component of the composition, such as, for example, tacrolimus, can undergo gamma irradiation before the final composition is created or the final composition can undergo gamma irradiation. In certain embodiments, the composition can be irradiated at a dose ranging from about 1 kilo-Gray (kGy) to about 100 kGy, preferably about 10 kGy to about 75 kGy, most preferably about 15 kGy to about 40 kGy.
The composition can be irradiated at a dose ranging from about 1 kilo-Gray (kGy) to about 100 kGy, preferably about 10 kGy to about 75 kGy, most preferably about 15 kGy to about 40 kGy (Table 36).

C=CC[C@@H]1/C=C(\C)C[C@H](C)C[C@H](OC)[C@H]2O[C@@](O)(C(=O)C(=O)N3CCCC[C@H]3C(=O)O[C@H](/C(C)=C/[C@@H]3CC[C@@H](O)[C@H](OC)C3)[C@H](C)[C@@H](O)CC1=O)[C@H](C)C[C@@H]2OC.O [Tacrolimus]
% recovery (15 kGy solid): 95.94%
% recovery (25 kGy solid): 92.55%
% recovery (40 kGy solid): 91.92%
% recovery (Control solid): 98.91%
